From PubChem BioAssay AID504810 (National Center for Advancing Translational Sciences (NCATS), 2011)
Among all 330,000 compounds or so, about 670 (0.2%) were called active. This list was built around the results that the source calls inconclusive (neither active nor inactive); the mix of calls is not that of the screen.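 How the source made its calls: active means activity change below a set negative limit, meaning inhibition stronger than a set level (cut at about -70% in these data); inconclusive means activity change between two set negative limits; inactive means the rest.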

Amino acid sequences for entries named in this document (tags omitted).
UniProt P16473, whole entry, looked up: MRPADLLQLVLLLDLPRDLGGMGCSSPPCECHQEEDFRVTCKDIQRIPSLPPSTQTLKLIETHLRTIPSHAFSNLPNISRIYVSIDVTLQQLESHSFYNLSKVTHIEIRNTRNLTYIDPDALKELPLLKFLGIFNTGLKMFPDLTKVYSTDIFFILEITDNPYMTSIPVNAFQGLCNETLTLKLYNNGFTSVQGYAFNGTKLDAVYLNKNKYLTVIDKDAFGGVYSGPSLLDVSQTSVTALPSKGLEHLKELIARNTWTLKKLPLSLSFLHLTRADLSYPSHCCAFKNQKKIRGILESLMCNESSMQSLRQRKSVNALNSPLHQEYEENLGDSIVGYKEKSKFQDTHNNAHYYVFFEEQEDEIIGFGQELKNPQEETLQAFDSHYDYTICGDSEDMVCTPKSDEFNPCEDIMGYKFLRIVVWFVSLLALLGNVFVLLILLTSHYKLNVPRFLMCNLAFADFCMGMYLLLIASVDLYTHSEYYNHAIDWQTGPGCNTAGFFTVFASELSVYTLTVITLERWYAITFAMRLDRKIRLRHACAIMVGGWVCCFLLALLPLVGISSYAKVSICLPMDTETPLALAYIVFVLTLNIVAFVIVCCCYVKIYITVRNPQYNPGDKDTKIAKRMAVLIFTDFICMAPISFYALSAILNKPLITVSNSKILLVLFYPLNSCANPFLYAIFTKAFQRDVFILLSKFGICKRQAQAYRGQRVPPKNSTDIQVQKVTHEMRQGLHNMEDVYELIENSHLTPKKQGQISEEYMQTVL

biological target: Thyrotropin receptor (Homo sapiens) (UniProt P16473); test: Antagonists of the Thyroid Stimulating Hormone Receptor: HTS campaign; conditions: TSHR-expressing cells, TSH-stimulated cAMP HTRF, 2 h; at 11.5 µM; hits give low values
How it was run: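 Competitive HTRF cAMP read-out (cryptate anti-cAMP antibody, cAMP-d2; 30 min, room temperature) in freshly harvested TSHR cells. Compounds added before TSH at EC80 (4nM final), followed by 2 hours' incubation at 37 deg C.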
On the % scale 0 is the no-effect control and ±100 the full control effect.

SMILES	activity change, negative = inhibition
CNS(=O)(=O)c1cccc(C(=O)OCC(=O)N2c3ccccc3NC(=O)C2(C)C)c1	inconclusive: -51.5%
CCCCNC(=O)N1CCN(c2ccnc3cc(Cl)ccc23)CC1	inactive: -5.29%
CC1=NN(C(N)=S)C(=O)C1N=Nc1ccc(C)c(Br)c1 (stereo unspecified)	inactive: -19.2%
COc1ccc2nc(Sc3c([N+](=O)[O-])nc(C)n3Cc3ccccc3)[nH]c2c1	inactive: 1.51%
CCOC(=O)c1c(C)n(C)c2ccc(OCC(O)CN3CCN(C)CC3)cc12 (stereo unspecified)	inactive: -6.61%
CN(C)c1nc(N2CCOCC2)nc(N(c2ccccc2)c2ccccc2)n1	inactive: -3.07%
NC(=O)c1ccsc1NC(=O)COC(=O)Cc1cccc2ccccc12	inconclusive: -67.1%
CC(C)c1cc(=O)n2[nH]c(SCc3ccccc3)nc2n1	inconclusive: -67.2%
O=C(CO/N=C/c1ccc(OC(F)F)cc1)NCc1ccc(F)cc1	active: -73.2%
CC(C)(C)c1ccc(/C=C/C(=O)Nc2ccc3c(c2)OCCO3)cc1	inactive: -40.1%
O=[N+]([O-])c1ccc(NC(=S)NCCc2ccccc2)cc1	inconclusive: -56.8%
CC[n+]1c(/C=C/C=C2/N(C)c3ccccc3C2(C)C)sc2ccccc21	inconclusive: -60.1%
CN(C)S(=O)(=O)c1ccc(C(=O)Nc2nc(-c3cc4ccccc4o3)cs2)cc1	inconclusive: -51.3%
O=C1Nc2ccccc2/C1=N\N=C\c1ccc(O)c(O)c1	inactive: -6.5%
N#CC1=C(N)N2C(=C(C#N)C1c1ccc(Br)cc1)Nc1ccccc12 (stereo unspecified)	active: -78.6%
COc1ccc(S(=O)(=O)N2CCN(CCc3ccccc3)CC2)cc1	inactive: -2.5%
Cc1ccc(S(=O)(=O)N2CCN(c3ccc([N+](=O)[O-])c(NCCN4CCOCC4)c3)CC2)cc1	inactive: -16.8%
COC(=O)[C@H](Cc1ccccc1)N1C/C=C\COc2c(Cl)cc(Cl)cc2S1(=O)=O	inconclusive: -59.9%
Cc1cccc(N2CCN(C(=O)CCCSc3nc4ccccc4[nH]3)CC2)c1C	inactive: -1.41%
COc1ccc(CCNC(=O)COC(=O)C23CC4CC(CC(C4)C2)C3)cc1	inconclusive: -52.9%
O=C(Nc1ccc(Br)c2ccccc12)c1ccc2ccccc2c1O	inconclusive: -57.9%
Cc1cc(C)n2c(C)nnc2c1	inconclusive: -57.4%

Six entries from above, set out differently:

| SMILES | activity change, negative = inhibition |
| --- | --- |
| CC(C)c1cc(=O)n2[nH]c(SCc3ccccc3)nc2n1 | inconclusive: -67.2% |
| O=C(CO/N=C/c1ccc(OC(F)F)cc1)NCc1ccc(F)cc1 | active: -73.2% |
| CC(C)(C)c1ccc(/C=C/C(=O)Nc2ccc3c(c2)OCCO3)cc1 | inactive: -40.1% |
| O=[N+]([O-])c1ccc(NC(=S)NCCc2ccccc2)cc1 | inconclusive: -56.8% |
| CC[n+]1c(/C=C/C=C2/N(C)c3ccccc3C2(C)C)sc2ccccc21 | inconclusive: -60.1% |
| CN(C)S(=O)(=O)c1ccc(C(=O)Nc2nc(-c3cc4ccccc4o3)cs2)cc1 | inconclusive: -51.3% |

Next part:

SMILES	activity change, negative = inhibition
CCCCCCCCCCCCCCCCCCOC[C@H](COP(=O)([O-])OCC[N+](C)(C)C)OC	active: -81.3%
Cc1nn2c(NCc3ccccn3)cc(C(C)C)nc2c1-c1ccccc1	inactive: -2.64%
CC(c1ccccc1)n1cc(C(=O)NCC2COc3ccccc3O2)nn1 (stereo unspecified)	inconclusive: -53.9%
Cc1cc(C(=O)Cn2nnc(-c3ccc(Cl)cc3)n2)c(C)n1-c1ccccc1	inactive: -28.4%
CCOc1ccccc1/C=C/c1onc(C)c1S(=O)(=O)N1CCC(C(=O)N2CCCCCC2)CC1	inconclusive: -50.9%
COc1ccccc1NS(=O)(=O)c1ccc(-c2cnc(C3CC3)o2)cc1	inactive: 22.4%
Cc1ccc(C)c(NC(=O)c2ccccc2NS(=O)(=O)c2cc([N+](=O)[O-])ccc2C)c1	inconclusive: -59.3%
O=C(CSc1ccc(-c2cccnc2)nn1)Nc1ccccc1F	inconclusive: -52.9%
CC1=C(C(=O)OC2CCCC(C)C2)C(c2ccccc2)NC(=O)N1 (stereo unspecified)	inconclusive: -53.3%
COc1ccc(NC2=C(Cl)C(=O)N(CCc3ccccc3)C2=O)cc1	inconclusive: -65.7%
N#Cc1c(-c2cccs2)nc(SCc2ccc(Cl)cc2)[nH]c1=O	inconclusive: -50.2%
COCC(C)n1c(COc2ccccc2F)nnc1SCc1c(C)noc1C (stereo unspecified)	inconclusive: -70%
N=c1oc2cc(O)ccc2cc1C(=O)Nc1ccc(Br)cc1	inconclusive: -61.6%
CC(=O)N1CCN(C(=O)c2ccccc2NS(=O)(=O)c2ccc(F)cc2)CC1	inconclusive: -62.5%
N/C(=N\OC(=O)Cc1ccc(-c2ccccc2)cc1)c1cccnc1	inconclusive: -62.6%
O=[N+]([O-])c1cnc(Sc2ccncn2)s1	active: -89.4%
O=C(Nc1nnc(CSCc2ccc(F)cc2)s1)c1cccc([N+](=O)[O-])c1	inconclusive: -61.1%
Cc1ccc(NC(=S)NCCN2CCOCC2)cc1F	inactive: 28.5%
Cn1c(N)c(C(=O)COC(=O)Cc2ccc(Cl)cc2)c(=O)n(C)c1=O	inactive: -1.47%
CCC(C)[C@@H](NC(=O)OC(C)(C)C)c1nnc(S(=O)(=O)Cc2cccc(C)c2)o1 (stereo partly specified)	active: -71.7%
CCOC(=O)C1=C(C)N(CCCC(=O)O)C(=O)NC1c1ccc(Cl)cc1 (stereo unspecified)	inactive: 4.46%
N#CC1=C2SCN(Cc3ccco3)CN2C(=O)CC1c1ccccc1F (stereo unspecified)	inactive: -6.25%

SMILES	activity change, negative = inhibition
CCN1/C(=C/c2sc(-c3ccccc3C)c[n+]2C)Sc2ccccc21	inconclusive: -51.6%
N#Cc1cccc(NC(=O)COC(=O)c2cc(S(=O)(=O)Nc3ccccc3Cl)ccc2O)c1	inconclusive: -57.6%
Cn1c(=O)c2c(nc(CN3CCN(c4ccccc4)CC3)n2Cc2c(F)cccc2Cl)n(C)c1=O	inactive: -12.4%
O=C1C2=C(C(c3ccccc3)=NCCN2)C(c2cccc([N+](=O)[O-])c2)N1c1ccccc1 (stereo unspecified)	inactive: 1.63%
Cc1cc(C#N)c(SCC(N)=O)nc1-c1ccc(F)cc1	active: -75.8%
O=[N+]([O-])c1cccc(CN2CCN(S(=O)(=O)Cc3ccccc3)CC2)c1	inconclusive: -69.4%
COc1cccc2[nH]c3c(N4CCN(Cc5ccc6c(c5)OCO6)CC4)ncnc3c12	inconclusive: -55.1%
O=C(c1ccccc1[N+](=O)[O-])N1CCC(Cc2ccccc2)CC1	inconclusive: -57.8%
CCCCN(CC(=O)NCc1ccc(Cl)cc1)S(=O)(=O)c1ccc2c(c1)OCCO2	inconclusive: -60.6%
O=C(Nc1nc(-c2ccc3c(c2)OCO3)cs1)c1ccncc1	inconclusive: -56.5%
CCN(CC)c1ccc(/C=C(\C#N)c2ccccn2)cc1	inconclusive: -58.6%
CCOc1ccc(N(CC(=O)Nc2ccccc2OCC)S(=O)(=O)c2c(C)noc2C)cc1	inactive: -8.39%
O=c1nc(/C=C/c2ccccc2C(F)(F)F)cc(C(F)(F)F)[nH]1	inconclusive: -59.9%
O=C(Nc1ccc2ccccc2c1)[C@@H]1C[C@H]1[C@@H](NP(=O)(c1ccccc1)c1ccccc1)c1ccccc1	inconclusive: -64.3%
O=C(CNc1cccc2ccccc12)N/N=C/c1cccc(Oc2ccccc2)c1	inactive: 2.6%
O=C(Nc1ccncc1)c1ccc(-c2ccccc2)cc1	inconclusive: -54%
CN(c1ccc(C(=O)NCCSCc2ccccc2)cc1)S(=O)(=O)c1ccccc1	inconclusive: -66.5%
CSc1nc(-c2ccccc2)nn1S(=O)(=O)c1ccc(Cl)cc1	inactive: 10.3%
COc1cccc(NC(=O)Nc2nc(SC(C)(C)C)ns2)c1	inconclusive: -61.9%
O=C(COc1ccc(Cl)cc1Cl)Nc1ccc(-c2ccc(N3CCOCC3)nn2)cc1	inactive: -9.64%
CC1CCCCC1NC(=S)Nc1ccc(SC(F)F)cc1 (stereo unspecified)	inconclusive: -51.2%
CCSc1nsc(NC(=O)Nc2ccc(F)cc2F)n1	inconclusive: -54.5%

SMILES	activity change, negative = inhibition
CSc1ccccc1OCc1cc(C(=O)N2CCc3c(Cl)cccc3C2)no1	inactive: -4.44%
Cc1cccc(-n2c(CNC(=O)Cc3ccccc3)n[nH]c2=S)c1	inactive: -3.32%
N#C/C(N=Nc1ccccc1O)=N\Nc1ccccc1O	inconclusive: -68.9%
CCCCOC(=O)Cn1c(=O)c2c(nc(Br)n2Cc2ccccc2)n(C)c1=O	inconclusive: -62.5%
O=C(Nc1nc2ccc(F)cc2s1)C1CCN(S(=O)(=O)c2cc([N+](=O)[O-])ccc2Cl)CC1	active: -92.4%
Cc1nn(-c2ccccc2)c(Cl)c1C(=O)N1CCN(c2ncnc3c2cnn3-c2ccccc2)CC1	inconclusive: -69.7%
NC(=S)n1[nH]c(-c2ccc([N+](=O)[O-])cc2)c(N=Nc2cccc(Cl)c2)c1=O	inconclusive: -61.9%
CCOC(=O)CSC1=NC(=O)/C(=C/c2ccc(Br)cc2)S1	inconclusive: -50.4%
COC(=O)C1CCCN1S(=O)(=O)c1ccc2ccccc2c1 (stereo unspecified)	active: -77.6%
CC(C)Nc1nc(SC(C)C(=O)Nc2ccccc2)nc(N(C)C)n1 (stereo unspecified)	inconclusive: -55.8%
O=C1CCCN1S(=O)(=O)c1ccc(F)cc1	inconclusive: -56.5%
Cc1ccc(Nc2nc(N3CCOCC3)nc(N3CCOCC3)n2)cc1Cl	active: -135%
O=[N+]([O-])c1ccc(O)c(/C=N\N=C2c3ccccc3-c3ccccc32)c1	inconclusive: -53%
COc1ccccc1C(=O)Nc1nc2cc3c(cc2s1)OCO3	inactive: 11.3%
Cc1ccc(S(=O)(=O)N2CCN(C(=O)Cc3ccsc3)CC2)c(C)c1	inconclusive: -56.2%
C=C[C@H](Cc1ccccc1)N(Cc1ccccc1)S(=O)(=O)N(Cc1ccccc1)[C@H](C=C)Cc1ccccc1	inactive: 8.99%
Cc1cccc(C(=O)NC(=S)Nc2cccc3nc(C)ccc23)c1	inactive: -11.8%
O=C(Nc1nc2ccccc2c(=O)s1)c1ccc(F)cc1Cl	inactive: 32.6%
O=[N+]([O-])c1ccccc1CSc1nnc2ccccn12	inactive: 5.69%
CCOC(=O)c1sc(NC(=O)c2cc(-c3ccccc3)nc3ccccc23)c(C#N)c1C	inconclusive: -58.7%
